No constants are given. Whether binding was seen depends on the method and setting. Binding seen in cells or lysates may run through a third protein. Some binding calls cover weakened binding; strength is not graded here.

By UniProt entry, the sequences of proteins in these tests, tags left out.
UniProt O95819: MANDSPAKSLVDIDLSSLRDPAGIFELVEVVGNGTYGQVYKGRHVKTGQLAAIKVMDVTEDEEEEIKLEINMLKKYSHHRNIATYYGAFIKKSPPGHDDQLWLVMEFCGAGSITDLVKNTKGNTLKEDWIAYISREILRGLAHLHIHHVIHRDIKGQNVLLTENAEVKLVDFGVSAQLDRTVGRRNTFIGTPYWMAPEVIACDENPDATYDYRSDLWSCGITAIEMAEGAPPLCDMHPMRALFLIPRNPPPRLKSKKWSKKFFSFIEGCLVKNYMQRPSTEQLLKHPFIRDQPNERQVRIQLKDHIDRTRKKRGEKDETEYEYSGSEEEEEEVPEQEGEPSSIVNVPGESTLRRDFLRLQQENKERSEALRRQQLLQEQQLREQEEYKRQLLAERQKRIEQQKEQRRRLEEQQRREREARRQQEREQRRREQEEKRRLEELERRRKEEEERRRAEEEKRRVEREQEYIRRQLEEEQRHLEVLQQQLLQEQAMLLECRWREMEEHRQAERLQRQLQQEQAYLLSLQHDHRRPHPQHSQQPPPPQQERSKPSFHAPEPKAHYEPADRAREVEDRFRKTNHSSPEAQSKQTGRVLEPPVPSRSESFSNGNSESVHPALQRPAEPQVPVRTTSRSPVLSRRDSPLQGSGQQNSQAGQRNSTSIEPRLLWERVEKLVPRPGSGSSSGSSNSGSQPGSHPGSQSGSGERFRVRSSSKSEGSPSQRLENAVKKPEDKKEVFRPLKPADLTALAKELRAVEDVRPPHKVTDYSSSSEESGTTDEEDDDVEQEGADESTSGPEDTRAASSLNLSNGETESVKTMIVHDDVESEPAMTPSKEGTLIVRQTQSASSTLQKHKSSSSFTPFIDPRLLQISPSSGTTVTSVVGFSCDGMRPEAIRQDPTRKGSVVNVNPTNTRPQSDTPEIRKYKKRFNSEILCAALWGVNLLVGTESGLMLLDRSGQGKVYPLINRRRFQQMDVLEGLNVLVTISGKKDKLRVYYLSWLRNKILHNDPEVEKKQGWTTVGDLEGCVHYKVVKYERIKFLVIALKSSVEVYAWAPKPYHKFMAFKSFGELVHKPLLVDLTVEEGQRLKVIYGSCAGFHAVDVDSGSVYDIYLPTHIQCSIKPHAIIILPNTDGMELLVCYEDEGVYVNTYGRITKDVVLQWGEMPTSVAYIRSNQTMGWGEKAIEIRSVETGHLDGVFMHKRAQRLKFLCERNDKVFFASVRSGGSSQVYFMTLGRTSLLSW
UniProt P35240: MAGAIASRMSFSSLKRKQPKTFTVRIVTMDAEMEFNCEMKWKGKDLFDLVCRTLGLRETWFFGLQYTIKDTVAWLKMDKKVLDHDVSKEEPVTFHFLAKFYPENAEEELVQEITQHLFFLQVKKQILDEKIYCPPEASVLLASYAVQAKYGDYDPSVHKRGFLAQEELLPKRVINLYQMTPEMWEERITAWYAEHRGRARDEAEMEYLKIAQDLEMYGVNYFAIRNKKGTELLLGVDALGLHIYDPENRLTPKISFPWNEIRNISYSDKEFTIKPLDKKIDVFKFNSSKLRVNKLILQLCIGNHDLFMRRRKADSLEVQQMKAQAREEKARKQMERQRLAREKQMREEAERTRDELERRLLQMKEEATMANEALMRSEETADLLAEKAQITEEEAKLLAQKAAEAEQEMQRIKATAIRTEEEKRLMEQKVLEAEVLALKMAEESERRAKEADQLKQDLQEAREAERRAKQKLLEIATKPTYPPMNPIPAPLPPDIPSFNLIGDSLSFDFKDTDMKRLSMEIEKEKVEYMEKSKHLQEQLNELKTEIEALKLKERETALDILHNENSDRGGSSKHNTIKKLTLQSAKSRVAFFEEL

This passage reports binding results from publication PMC10019571.

Assay [1] concerns the target mitogen-activated protein kinase kinase kinase kinase 4 (MAP4K4) (UniProt O95819). The experiment in a line: co-IP; endogenous coimmunoprecipitation assay (Fig. 1J); reciprocal co-immunoprecipitation (Figs. 1J and S5E); cells and buffers not shown.
In assay [2] the target is Neurofibromin 2 (NF2) (UniProt P35240). The assay is described as above.

For the substance “Neurofibromin 2 (NF2) (from UniProt P35240 1-595)”, the binding entry in assay [1] is reported as “binds”. As to “mitogen-activated protein kinase kinase kinase kinase 4 (MAP4K4) (from UniProt O95819 1-1239) (enzyme)”, the binding entry in assay [2] is reported as “binds”.
